Test results taken from paper PMC5386714.
Results are given in words; binding and its absence hold for the method and conditions named. Binding seen in cells or lysates may run through a third protein. Some entries that bind do so weakly or less than the wild type. Sequences can lack the tags named with a protein.

Tests used:
[1] = target: T1, KIF4A-unbound PHF14 mutant (Δ1-160a.a) (human) (UniProt O94880); assay: co-IP; myc-PHF14 or its mutants and GFP-KIF4A co-overexpressed in HCT-116 cells; ethidium bromide in the IP buffer
T1 sequence: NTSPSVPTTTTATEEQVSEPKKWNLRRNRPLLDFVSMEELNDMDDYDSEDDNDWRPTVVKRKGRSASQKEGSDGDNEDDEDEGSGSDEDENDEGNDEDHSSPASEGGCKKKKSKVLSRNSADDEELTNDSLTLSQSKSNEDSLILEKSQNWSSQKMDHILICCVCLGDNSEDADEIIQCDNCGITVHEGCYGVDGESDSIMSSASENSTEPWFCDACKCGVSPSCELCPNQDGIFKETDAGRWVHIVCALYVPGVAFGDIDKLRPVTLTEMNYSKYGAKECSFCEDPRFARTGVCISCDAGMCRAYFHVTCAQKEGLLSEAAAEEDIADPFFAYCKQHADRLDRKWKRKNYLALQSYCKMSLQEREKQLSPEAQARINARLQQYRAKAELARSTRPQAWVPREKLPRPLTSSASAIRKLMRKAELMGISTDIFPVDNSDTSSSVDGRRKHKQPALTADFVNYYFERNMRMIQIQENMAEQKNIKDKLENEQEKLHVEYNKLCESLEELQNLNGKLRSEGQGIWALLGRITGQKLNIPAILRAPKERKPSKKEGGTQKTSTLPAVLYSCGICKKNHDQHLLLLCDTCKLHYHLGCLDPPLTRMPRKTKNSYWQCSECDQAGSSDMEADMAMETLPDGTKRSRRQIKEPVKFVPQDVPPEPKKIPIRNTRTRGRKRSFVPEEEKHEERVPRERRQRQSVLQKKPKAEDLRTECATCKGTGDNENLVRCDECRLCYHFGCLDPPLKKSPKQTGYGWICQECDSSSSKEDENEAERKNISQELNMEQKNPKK

[2] = target: T2, myc-tagged PHF14 (wild type) (human) (UniProt O94880); assay: as above
T2 sequence: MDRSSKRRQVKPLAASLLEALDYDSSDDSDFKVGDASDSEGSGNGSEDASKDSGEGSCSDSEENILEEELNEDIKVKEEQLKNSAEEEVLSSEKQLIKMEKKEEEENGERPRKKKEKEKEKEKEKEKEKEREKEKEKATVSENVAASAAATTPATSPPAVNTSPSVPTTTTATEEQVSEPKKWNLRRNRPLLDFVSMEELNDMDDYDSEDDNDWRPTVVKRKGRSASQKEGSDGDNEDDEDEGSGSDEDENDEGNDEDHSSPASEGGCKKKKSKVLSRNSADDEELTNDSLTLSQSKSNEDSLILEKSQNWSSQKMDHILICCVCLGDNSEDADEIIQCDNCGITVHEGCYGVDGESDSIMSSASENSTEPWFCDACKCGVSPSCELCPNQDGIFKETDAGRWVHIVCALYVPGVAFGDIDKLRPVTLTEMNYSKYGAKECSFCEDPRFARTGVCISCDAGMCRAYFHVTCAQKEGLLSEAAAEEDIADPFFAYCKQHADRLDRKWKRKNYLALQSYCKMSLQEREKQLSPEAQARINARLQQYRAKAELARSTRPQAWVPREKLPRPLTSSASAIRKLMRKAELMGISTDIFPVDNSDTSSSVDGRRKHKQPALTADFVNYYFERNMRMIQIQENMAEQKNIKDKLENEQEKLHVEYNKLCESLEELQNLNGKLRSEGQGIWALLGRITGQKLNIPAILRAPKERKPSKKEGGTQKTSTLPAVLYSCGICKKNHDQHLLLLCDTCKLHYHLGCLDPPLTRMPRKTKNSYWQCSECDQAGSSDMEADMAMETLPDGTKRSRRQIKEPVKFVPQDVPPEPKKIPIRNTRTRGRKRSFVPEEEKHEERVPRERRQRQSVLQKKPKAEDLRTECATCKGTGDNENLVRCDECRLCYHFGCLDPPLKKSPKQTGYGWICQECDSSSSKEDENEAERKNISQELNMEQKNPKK

[3] = target: T3, PHD finger protein 14 (PHF14), endogenous (human (endogenous in A549, HeLa, 293T)) (UniProt O94880); assay: co-IP; GFP-tagged WT KIF4A or deletion mutants expressed in 293T cells, co-immunoprecipitation with PHF14; ethidium bromide in the IP buffer
T3 sequence: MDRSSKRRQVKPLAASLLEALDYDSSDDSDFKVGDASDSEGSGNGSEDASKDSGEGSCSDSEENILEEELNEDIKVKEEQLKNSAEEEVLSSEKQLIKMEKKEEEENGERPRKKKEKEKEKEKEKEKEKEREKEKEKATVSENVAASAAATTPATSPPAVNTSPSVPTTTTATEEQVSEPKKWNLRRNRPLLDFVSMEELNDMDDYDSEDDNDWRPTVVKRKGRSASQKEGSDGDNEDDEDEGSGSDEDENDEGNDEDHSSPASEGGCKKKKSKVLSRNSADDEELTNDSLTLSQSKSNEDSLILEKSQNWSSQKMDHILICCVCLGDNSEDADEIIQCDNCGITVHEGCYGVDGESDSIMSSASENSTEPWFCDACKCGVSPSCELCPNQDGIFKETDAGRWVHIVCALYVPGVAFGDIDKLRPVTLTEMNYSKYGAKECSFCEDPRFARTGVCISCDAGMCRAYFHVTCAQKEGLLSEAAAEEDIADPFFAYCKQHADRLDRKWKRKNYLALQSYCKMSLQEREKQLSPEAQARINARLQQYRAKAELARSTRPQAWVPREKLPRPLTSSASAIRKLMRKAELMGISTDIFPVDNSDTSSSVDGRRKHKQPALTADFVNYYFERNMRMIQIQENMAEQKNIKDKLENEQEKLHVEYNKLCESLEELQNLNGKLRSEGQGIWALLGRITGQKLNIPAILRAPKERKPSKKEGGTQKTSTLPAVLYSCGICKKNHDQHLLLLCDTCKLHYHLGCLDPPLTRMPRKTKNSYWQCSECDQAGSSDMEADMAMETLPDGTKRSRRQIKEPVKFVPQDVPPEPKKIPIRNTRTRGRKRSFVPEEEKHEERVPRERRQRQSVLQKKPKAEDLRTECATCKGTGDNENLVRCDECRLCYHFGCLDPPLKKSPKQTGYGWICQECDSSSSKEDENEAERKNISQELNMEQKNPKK

B1: GFP-tagged WT KIF4A (protein, UniProt O95239 1-1232)
chain: MKEEVKGIPVRVALRCRPLVPKEISEGCQMCLSFVPGEPQVVVGTDKSFTYDFVFDPSTEQEEVFNTAVAPLIKGVFKGYNATVLAYGQTGSGKTYSMGGAYTAEQENEPTVGVIPRVIQLLFKEIDKKSDFEFTLKVSYLEIYNEEILDLLCPSREKAQINIREDPKEGIKIVGLTEKTVLVALDTVSCLEQGNNSRTVASTAMNSQSSRSHAIFTISLEQRKKSDKNSSFRSKLHLVDLAGSERQKKTKAEGDRLKEGININRGLLCLGNVISALGDDKKGGFVPYRDSKLTRLLQDSLGGNSHTLMIACVSPADSNLEETLNTLRYADRARKIKNKPIVNIDPQTAELNHLKQQVQQLQVLLLQAHGGTLPGSITVEPSENLQSLMEKNQSLVEENEKLSRGLSEAAGQTAQMLERIILTEQANEKMNAKLEELRQHAACKLDLQKLVETLEDQELKENVEIICNLQQLITQLSDETVACMAAAIDTAVEQEAQVETSPETSRSSDAFTTQHALRQAQMSKELVELNKALALKEALARKMTQNDSQLQPIQYQYQDNIKELELEVINLQKEKEELVLELQTAKKDANQAKLSERRRKRLQELEGQIADLKKKLNEQSKLLKLKESTERTVSKLNQEIRMMKNQRVQLMRQMKEDAEKFRQWKQKKDKEVIQLKERDRKRQYELLKLERNFQKQSNVLRRKTEEAAAANKRLKDALQKQREVADKRKETQSRGMEGTAARVKNWLGNEIEVMVSTEEAKRHLNDLLEDRKILAQDVAQLKEKKESGENPPPKLRRRTFSLTEVRGQVSESEDSITKQIESLETEMEFRSAQIADLQQKLLDAESEDRPKQRWENIATILEAKCALKYLIGELVSSKIQVSKLESSLKQSKTSCADMQKMLFEERNHFAEIETELQAELVRMEQQHQEKVLYLLSQLQQSQMAEKQLEESVSEKEQQLLSTLKCQDEELEKMREVCEQNQQLLRENEIIKQKLTLLQVASRQKHLPKDTLLSPDSSFEYVPPKPKPSRVKEKFLEQSMDIEDLKYCSEHSVNEHEDGDGDDDEGDDEEWKPTKLVKVSRKNIQGCSCKGWCGNKQCGCRKQKSDCGVDCCCDPTKCRNRQQGKDSLGTVERTQDSEGSFKLEDPTEVTPGLSFFNPVCATPNSKILKEMCDVEQVLSKKTPPAPSPFDLPELKHVATEYQENKAPGKKKKRALASNTSFFSGCSPIEEEAH
- binding [1]: no binding
- binding [2]: binds
- binding [3]: binds
